# Test results as given in PubChem BioAssay AID1508600 (Functional Genomics Laboratory (NCATS/FGL), 2020).
# The campaign covered roughly 53,000 sequences. About 3,700 (7%) were called active.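 How the source made its calls: active means gene knockdowns whose robust z-score for IL-1 alpha signal is at least 2 or at most -2, so actives lie on both sides; inactive means the rest.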 This is one part of the list.
# Experiment: Components of the Cytosolic LPS Sensing Pathway: Gene Identification via Genome-wide siRNA Screen;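 further: robust z of the log signal after scaling to non-targeting control siRNA wells of the plate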
# Details: RAW264.7 macrophages, IL-1a HTRF, actives lie on both sides, screened at 100 nM (by protocol), cells primed 5 h with Pam3CSK4 first
# Method in brief: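 Three distinct siRNAs per gene were tested singly at 100 nM in RAW264.7 macrophages. Following Pam3CSK4 priming and 24 hour LipidA transfection, IL-1a secretion was read by HTRF.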
row,Sequence,z-score
1,GCUAGUAUCAUGGAACCUCTT against Gpat3,inactive: 0.371
2,CCAACACCUAAUAUUACUCTT against Lrig2,inactive: 0.339
3,CCACCUGUCGAGAUGUCGUTT against Ppp1r13b,inactive: 1.1
4,GGUGUUGUGCACAUAUAUGTT against Tom1l2,inactive: -1.62
5,GGUUUUGUAGGAGUCUCUCTT against Vmn1r54,inactive: 0.247
6,GCCACAAGUAGUUGUGGUATT against Akr1c20,inactive: 0.376
7,GGUCACGUCAGCAAAGCAATT against B930095G15Rik,active: -2.73
8,GGAAUUCAGCGAUUUAUACTT against Smox,inactive: -0.109
9,GGACCCUCUGGAUUAAUCGTT against Mrpl20,inactive: 0.0985
10,GGAAUUGGGUAGUACAAAATT against Irak1,inactive: 0.282
11,GGGUGAUUUCUAUUCACUATT against Pam,inactive: -0.633
12,GGAAGUUUACAGCUUUGAATT against Ccdc38,inactive: 0.543
13,GGAAGAAGUAGACCUGUCUTT against Aar2,active: -2.36
14,GGAUGGAAAAUAAAACAGGTT against Hoxb7,inactive: -0.651
15,GGAUCCUCUUGAUCAAGCUTT against Vps53,inactive: -0.891
16,CUUACAGUUGCGUCCACUGTT against Ypel4,inactive: -0.229
17,GGAUGACCUCAAGUAUAAGTT against Mob3b,inactive: -0.37
18,CGAAGACCCUCAUAUAGAATT against Crem,inactive: -0.0829
19,GCUAUUGGGACUUAGAACATT against Slc26a9,inactive: 0.191
20,GCAUCCCAGAUAUUGAGCATT against Arrdc1,active: 2.52
21,GGAGUCCUAUGUGCUGAAATT against Treml4,inactive: 0.555
22,GGUGAACGAUGUCAAUAAGTT against Pdxk,inactive: -0.318
23,GACAGUUACCAACUUCUACTT against Kiss1r,inactive: -0.202

# Random excerpt: 3 records from the list
row,Sequence,z-score
1,GCUAGUAUCAUGGAACCUCTT against Gpat3,inactive: 0.371
3,CCACCUGUCGAGAUGUCGUTT against Ppp1r13b,inactive: 1.1
21,GGAGUCCUAUGUGCUGAAATT against Treml4,inactive: 0.555

# Some of the entries so far, bar-delimited.
row | Sequence | z-score
2 | CCAACACCUAAUAUUACUCTT against Lrig2 | inactive: 0.339
3 | CCACCUGUCGAGAUGUCGUTT against Ppp1r13b | inactive: 1.1

# Next entries

row,Sequence,z-score
1,GCUCUUACAUAUCAAGCUUTT against Styxl1,inactive: -0.352
2,GGUUCUAUACAAUCCUGAATT against Obi1,inactive: 0.548
3,GUUCCCAAAGUCUCAUGUUTT against Mef2b,inactive: -0.564
4,GCCACGGAAAAUAGGGAAGTT against Irf7,inactive: 0.998
5,GGUUCGGGAGACACCUCUUTT against Fam53b,inactive: -0.338
6,GCUACGAGCAGUUUUUAUUTT against Ptgs1,inactive: 0.885
7,GCAAGUUGGCGUGAAGAUATT against Col9a1,inactive: -0.343
8,CGGUAAACUGGUUUUACUUTT against Otulin,inactive: 1.8
9,CGGGCUAUGGAGUUGAAGATT against Noa1,inactive: -0.0994
10,CGAUCUUGACCAAAACAAUTT against Fbxo30,inactive: -1.49
11,CGACCUUCAAGGCAAUAUUTT against Anapc2,inactive: -0.573
12,CCCGAAAGACAUGUAUUCGTT against Mrps18b,inactive: -0.38
13,CGUGGAAAAUGAUCAACACTT against LOC434320,inactive: -1.42
14,GAGCUCUGCAUUUGGUUAGTT against Fam98b,inactive: 0.0904
15,CCAGGAAAGAUAUUUGAUGTT against H2-T3,inactive: -0.609
16,CCGUCAGGUCUGCAUUCAGTT against Olfr105-ps,inactive: -0.213
17,GGUAAAAAGGGAUCACUCUTT against Igfbp7,inactive: -0.489
18,GGGUCUGCCGUCAUCCAUATT against Acp6,inactive: -0.563
19,GGCUCAGGCAUUGUAACCATT against Dnm3,inactive: -0.177
20,GGCAGAGAAUUUUUUGUGGTT against Ddah1,inactive: -0.938
21,GCCAUGUUUUAGACCUCCUTT against Mms22l,inactive: 0.745
22,CCGAUGAUCAGAGAAACAGTT against Prkar2b,inactive: -1.25
23,CGCCCAUGAUGAAUCCUUUTT against Olfr1416,inactive: 0.843

row,Sequence,z-score
1,GGAAUACCUUGGAUGGCUATT against Nfe2l1,inactive: -0.39
2,CGUAACACUGCCUUUGAAUTT against Ube4b,inactive: -0.524
3,GGCUACGUCGAUGUCUCAATT against Fam171a2,inactive: -0.92
4,GGUCAAGAGAAUGUACAGATT against Cdc42se2,inactive: 1.58
5,CCUCAAGUCUAAUUCUCAUTT against Ccdc58,inactive: -1.02
6,CGGAAACCACCUCUGCUAUTT against Ctnnd2,inactive: 0.566
7,CCAAGUGACUUUAAGGAUGTT against Pcolce,inactive: 0.759
8,GGAAUUUCGACCAUCGUCUTT against Tmem54,inactive: -0.0113
9,CCGCUUGAAUCUUAGUGAUTT against Hoxc12,inactive: -1.21
10,CCAAGAACUGCUCAUUCAGTT against Nrsn2,inactive: 1.06
11,GGAAUUCCUGUUCGAUUUGTT against Elp1,inactive: 1.27
12,GGUUCUGAUAUACGUGUUUTT against Rraga,inactive: 0.057
13,GCUGCCUCAUUUCUGGAUGTT against Klk11,inactive: 1.1
14,GCCUCAUUAUGAGUUGGCATT against Olfr1419,active: -2.51
15,GGUGAUGGCUGUUCCUUUCTT against Zdhhc2,inactive: 0.533
16,GCACUCCAAGAUAUUAUGUTT against Tbc1d22b,inactive: 0.514
17,GGAAGAUGUGUUUCUGCCCTT against Sergef,inactive: -1.32
18,GGAGAUUGGGAUCAAUUAGTT against Sall3,inactive: 0.576
19,GGUGACACACUAGUAGACUTT against Sclt1,active: 3.47
20,GCACUACCGCAUCAUGUAUTT against Csk,inactive: -1.24
21,CUAUCUGACCAUAAUGAAATT against Olfr1248,inactive: 0.000293
22,GGCACCUAUCACAUCUAUCTT against Tex21,inactive: -0.0614
